Patent US7767664B2, “Plant growth regulation” (Bayer CropScience AG, priority 2004, dated 2010)

System: maize (Zea mays, variety “LORENZO”)
Experiment: Root growth assay, maize seed treatment
Format: in vivo
Settings: Root Growth of 100 is set as the standard, wet root weight 16 days post treatment
Excerpt: Plant roots are a highly proliferative tissue that allows an easy accessible, cheap and short term screening method for plant growth regulators. The results obtained can easily be transferred to the overall effects on a plant of plant growth regulators identified by such a system. By using this root assay one is enabled to determine the effect of a seed treatment to root growth and/or germination and/or changes in habitat of germinated plants in order to identify the possible use as a yield enhancer. Two seeds of wheat (Triticum aestivum, variety “TRISO”) or 1 seed of maize (Zea mays, variety “LORENZO”) per hole in a plastic tray which contains an architecture of 8×13 holes were placed on compost soil covered with sand. These seeds were treated with 100 μl/hole, which creates an application volume of approx. 1200 l/ha, of a compound solution at active ingredient rates equivalent to 100, 10 and 1 g a.i./ha of each compound using an robotic application system (Lizzy Spray Robotics). Six replicates in a row of each compound and concentration were done. The outer rim of the above defined plastic tray was untreated to avoid false negative effects and the middle row (No. 7) was used as untreated control. The treated seeds were allowed to dry for approx. 4 hours and subsequently covered with sand and watered. The trays were stored in climate chambers with 14 hours lighting at a temperature of 24° C. (±2) at daytime and 16° C. (±2) at night and relative humidity (rH) of 60% and daily watered. Assessments were done 16 (±2) days post treatment by counting the germinated plants and assessing the phytotoxicity symptoms and percentage. In addition, the roots were washed out and the shoots were cut directly above the seed and the wet roots were placed on dry paper towels for approximately 30 minutes and weighted afterwards. This procedure provides a similar grade of moisture to the roots so that a comparison of the weights is possible. […]

**Q.** What does the source list for O=C1Cc2c([nH]c3cc(Cl)cc(Cl)c23)-c2ccccc2N1 [Compound 1.8]?
**A.** Root Growth (1 g a.i./ha): 112; Root Growth (10 g a.i./ha): 78; Root Growth (100 g a.i./ha): 115
